Chains of the proteins cited; added tags and fusions are not shown. Lines headed by an entry give the natural chain unless they say otherwise; changes in a name come on top.
UniProt Q8W2F1: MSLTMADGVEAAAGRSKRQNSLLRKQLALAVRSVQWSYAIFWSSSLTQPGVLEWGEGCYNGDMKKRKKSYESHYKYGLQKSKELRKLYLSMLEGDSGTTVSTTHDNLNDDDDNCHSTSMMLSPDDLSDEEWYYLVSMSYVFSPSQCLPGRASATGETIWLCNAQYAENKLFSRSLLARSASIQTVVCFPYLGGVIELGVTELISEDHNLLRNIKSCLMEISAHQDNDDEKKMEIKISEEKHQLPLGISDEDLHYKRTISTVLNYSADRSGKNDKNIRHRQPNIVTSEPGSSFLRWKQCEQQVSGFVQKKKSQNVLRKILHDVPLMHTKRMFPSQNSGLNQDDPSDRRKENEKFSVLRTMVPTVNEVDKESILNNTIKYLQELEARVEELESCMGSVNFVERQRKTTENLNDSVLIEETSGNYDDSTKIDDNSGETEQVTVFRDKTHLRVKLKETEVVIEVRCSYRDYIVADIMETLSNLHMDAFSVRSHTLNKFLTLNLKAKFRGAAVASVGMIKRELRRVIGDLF

In publication PMC3111535:

Target: ATMYC1 Ler with A189P (Arabidopsis thaliana) (UniProt Q8W2F1)
Assay: two-hybrid; ATMYC1 in the DNA binding vector pGBT9 RFB, TTG1 or GL1 in activation domain vectors; yeast strain Y190; growth on histidine dropout media and β-galactosidase activity (X-gal, colonies lifted on nitrocellulose)

binding: binds
B1: GL1 (protein, UniProt P27900 1-228)
chain: MRIRRRDEKENQEYKKGLWTVEEDNILMDYVLNHGTGQWNRIVRKTGLKRCGKSCRLRWMNYLSPNVNKGNFTEQEEDLIIRLHKLLGNRWSLIAKRVPGRTDNQVKNYWNTHLSKKLVGDYSSAVKTTGEDDDSPPSLFITAATPSSCHHQQENIYENIAKSFNGVVSASYEDKPKQELAQKDVLMATTNDPSHYYGNNALWVHDDDFELSSLVMMNFASGDVEYCL

binding: binds
B2: TTG1 (protein, UniProt Q9XGN1 1-341)
chain: MDNSAPDSLSRSETAVTYDSPYPLYAMAFSSLRSSSGHRIAVGSFLEDYNNRIDILSFDSDSMTVKPLPNLSFEHPYPPTKLMFSPPSLRRPSSGDLLASSGDFLRLWEINEDSSTVEPISVLNNSKTSEFCAPLTSFDWNDVEPKRLGTCSIDTTCTIWDIEKSVVETQLIAHDKEVHDIAWGEARVFASVSADGSVRIFDLRDKEHSTIIYESPQPDTPLLRLAWNKQDLRYMATILMDSNKVVILDIRSPTMPVAELERHQASVNAIAWAPQSCKHICSGGDDTQALIWELPTVAGPNGIDPMSVYSAGSEINQLQWSSSQPDWIGIAFANKMQLLRV

Results are given in words; binding and its absence hold for the method and conditions named. A result given as binding can be weak or reduced; the word gives no strength. One block for each binder: values may come before it.
